Assay results reported in patent US20260055150A1, “GRAIL-1 PEPTIDE PRODUCTS AND METHODS” (REGENTS OF THE UNIVERSITY OF MICHIGAN, priority 2022, published 2026).
Entries after “also recorded” stand apart in the source; their conditions may differ. At least one structure is not confirmed: it was looked up by name or label, or the drawing left a doubt.

Assays:
mutant p53 and EGFR = test: Immunoblotting of mutant p53 and EGFR levels in BE/EAC cells; format: cell-based
OE33 tumors = test: OE33 tumor growth in nude mice; format: in vivo
implanted PDOs = test: PDOs implanted in SCID mouse colon, simvastatin treatment; format: in vivo, SCID mice; conditions: 20 mg/kg single dose intraperitoneally, two days post treatment

Structure (SMILES): CCC(C)(C)C(=O)O[C@H]1C[C@@H](C)C=C2C=C[C@H](C)[C@H](CC[C@@H]3C[C@@H](O)CC(=O)O3)[C@H]21 [simvastatin]
- impact on p53 and EGFR levels in wild type p53 cells (mutant p53 and EGFR; CpA cells): no major impact
- EGFR levels (mutant p53 and EGFR; CpD and OE33 cells): reduces
- mutant p53 levels (mutant p53 and EGFR; CpD and OE33 cells): reduces
- EGFR levels, dose and time dependence (mutant p53 and EGFR; OE33 cells, 10 nM, within 24 h): reduction of EGFR levels
- tumor growth (OE33 tumors; 20 mg/kg per day for 5 days, compared to DMSO): inhibited growth; also recorded: inhibits tumor growth
- total and active (acetylated) mutant p53 in tumors (OE33 tumors; tumor cell lysates, immunoblot): loss of total and active (acetylated at K382) mutant p53; also recorded: reduced total and active (acetylated) mutant p53 levels
- organoid size (EpCam staining) (implanted PDOs): reduction in the organoid size
